Laboratory results: PubChem BioAssay AID1259274 (Sanger Institute, 2017)
The whole screen tested 794 reagents; this is a part drawn at random. 11 of them (1.4%) were called active. 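Calls rest on knock-down without drug only; synergy scores with anchor drugs were not used for the essential call.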 No viability above 1 is reported: the scale is capped. Not all columns of the deposit are shown. The record does not give: the amount of reagent, the time to read-out.

Test: 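Kinase knock-downs that cut colorectal cancer cell viability or boost drug killing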 (primary screen)
Cells: human RKO colorectal cancer cells
Reagent: siRNA pool against human genes
Treatment: anchor drugs BYL719 at 1 µM, cetuximab at 5 µg/ml or trametinib at 10 nM; DMSO vehicle as the no-drug arm
Measurement: 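Viability as fraction of non-targeting pool 2 control, averaged across replicates, robust z-score for single knock-down, and a combination synergy score per anchor drug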
Scale: viability z-score, siRNA alone: higher = more viable cells; low values mean essential gene; viability, siRNA alone, vehicle: higher = more viable cells
Units: viability, siRNA alone, vehicle in fraction of control
Hit rule: 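Essential when the robust viability z-score with siRNA only falls below -3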
Calls: active = essential when knocked down alone; inactive = no change alone

{"target gene": "RSKR (GeneID 124923)", "viability z-score, siRNA alone": 0.494, "viability, siRNA alone, vehicle": 0.94, "Call": "inactive"}
{"target gene": "HUS1 (GeneID 3364)", "viability z-score, siRNA alone": -0.278, "viability, siRNA alone, vehicle": 0.874, "Call": "inactive"}
{"target gene": "ROR1 (GeneID 4919)", "viability z-score, siRNA alone": 1.19, "viability, siRNA alone, vehicle": 1, "Call": "inactive"}
{"target gene": "MTOR (GeneID 2475)", "viability z-score, siRNA alone": -0.0421, "viability, siRNA alone, vehicle": 0.894, "Call": "inactive"}
{"target gene": "MGA (GeneID 23269)", "viability z-score, siRNA alone": -0.974, "viability, siRNA alone, vehicle": 0.815, "Call": "inactive"}
{"target gene": "MAGI1 (GeneID 9223)", "viability z-score, siRNA alone": -0.411, "viability, siRNA alone, vehicle": 0.863, "Call": "inactive"}
{"target gene": "TAOK2 (GeneID 9344)", "viability z-score, siRNA alone": 0.91, "viability, siRNA alone, vehicle": 0.976, "Call": "inactive"}
{"target gene": "LMBR1 (GeneID 64327)", "viability z-score, siRNA alone": 1.08, "viability, siRNA alone, vehicle": 0.991, "Call": "inactive"}
{"target gene": "TAOK1 (GeneID 57551)", "viability z-score, siRNA alone": -0.161, "viability, siRNA alone, vehicle": 0.884, "Call": "inactive"}
{"target gene": "ACO1 (GeneID 48)", "viability z-score, siRNA alone": 0.271, "viability, siRNA alone, vehicle": 0.921, "Call": "inactive"}
{"target gene": "DBF4 (GeneID 10926)", "viability z-score, siRNA alone": 1.19, "viability, siRNA alone, vehicle": 1, "Call": "inactive"}
{"target gene": "UCK2 (GeneID 7371)", "viability z-score, siRNA alone": -0.616, "viability, siRNA alone, vehicle": 0.845, "Call": "inactive"}
{"target gene": "CDK16 (GeneID 5127)", "viability z-score, siRNA alone": -1.52, "viability, siRNA alone, vehicle": 0.768, "Call": "inactive"}
{"target gene": "PPP2R1A (GeneID 5518)", "viability z-score, siRNA alone": -0.64, "viability, siRNA alone, vehicle": 0.843, "Call": "inactive"}
{"target gene": "UHMK1 (GeneID 127933)", "viability z-score, siRNA alone": 1.14, "viability, siRNA alone, vehicle": 0.996, "Call": "inactive"}
{"target gene": "CDK12 (GeneID 51755)", "viability z-score, siRNA alone": -0.301, "viability, siRNA alone, vehicle": 0.872, "Call": "inactive"}
{"target gene": "CDK6 (GeneID 1021)", "viability z-score, siRNA alone": 0.349, "viability, siRNA alone, vehicle": 0.928, "Call": "inactive"}
{"target gene": "TAF1 (GeneID 6872)", "viability z-score, siRNA alone": -0.318, "viability, siRNA alone, vehicle": 0.871, "Call": "inactive"}
{"target gene": "TRIB1 (GeneID 10221)", "viability z-score, siRNA alone": 1.19, "viability, siRNA alone, vehicle": 1, "Call": "inactive"}
{"target gene": "WNK4 (GeneID 65266)", "viability z-score, siRNA alone": -0.445, "viability, siRNA alone, vehicle": 0.86, "Call": "inactive"}
{"target gene": "SGK3 (GeneID 23678)", "viability z-score, siRNA alone": 0.0812, "viability, siRNA alone, vehicle": 0.905, "Call": "inactive"}
{"target gene": "SGK2 (GeneID 10110)", "viability z-score, siRNA alone": 0.549, "viability, siRNA alone, vehicle": 0.945, "Call": "inactive"}
{"target gene": "ACVR2B (GeneID 93)", "viability z-score, siRNA alone": 0.162, "viability, siRNA alone, vehicle": 0.912, "Call": "inactive"}
{"target gene": "ELF3 (GeneID 1999)", "viability z-score, siRNA alone": -0.884, "viability, siRNA alone, vehicle": 0.822, "Call": "inactive"}
{"target gene": "MAPK12 (GeneID 6300)", "viability z-score, siRNA alone": -1.29, "viability, siRNA alone, vehicle": 0.788, "Call": "inactive"}
{"target gene": "FGFR2 (GeneID 2263)", "viability z-score, siRNA alone": -0.928, "viability, siRNA alone, vehicle": 0.818, "Call": "inactive"}
{"target gene": "SMG1 (GeneID 23049)", "viability z-score, siRNA alone": -0.39, "viability, siRNA alone, vehicle": 0.865, "Call": "inactive"}
{"target gene": "HK3 (GeneID 3101)", "viability z-score, siRNA alone": 1.19, "viability, siRNA alone, vehicle": 1, "Call": "inactive"}

An excerpt from above, limited to “viability z-score, siRNA alone”.
ELF3 (GeneID 1999)	-0.884
MAPK12 (GeneID 6300)	-1.29
FGFR2 (GeneID 2263)	-0.928
SMG1 (GeneID 23049)	-0.39
